Reference: PubChem BioAssay AID504774 (Drosophila RNAi Screening Center, 2011)
The screen tested about 23,000 reagents; below is a random part of those with a known target gene and a result. 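Values are quantile-normalised luminescence on an arbitrary scale; higher means more cells surviving MMS.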 Reagent sequences are not shown.

Screen: 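Knock-downs that shift viability of MMS-exposed cells relative to untreated ones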 (primary screen)
Cell system: Drosophila Kc167 cells
Reagents: long dsRNA against Drosophila genes, about 0.25 µg dsRNA per well
Time to read-out: about 6 days: 3 days knock-down, then 3 days with or without MMS
Conditions: methyl methanesulphonate 0.004% (w/v) for 3 days after knock-down
Measured: 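Viability in wells given MMS, read as ATP luminescence, normalised by quantiles plate by plate and averaged across replicates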
Reading the numbers: mean viability with MMS and viability with MMS: higher = more surviving cells after MMS

| target gene | dsRNA | mean viability with MMS | viability with MMS, replicate 1 | viability with MMS, replicate 2 |
| --- | --- | --- | --- | --- |
| CG7342 | DRSC16230 | 3.60e6 | 4.13e6 | 4.02e6 |
| shot | DRSC05459 | 3.62e6 | 4.00e6 | 4.14e6 |
| shot | DRSC05460 | 3.56e6 | 4.01e6 | 4.04e6 |
| shot | DRSC07682 | 3.81e6 | 4.24e6 | 4.36e6 |
| SoYb | DRSC02901 | 3.65e6 | 4.32e6 | 3.96e6 |
| Gfat2 | DRSC14598 | 3.54e6 | 3.96e6 | 4.08e6 |
| ktub | DRSC04551 | 3.67e6 | 4.37e6 | 4.14e6 |
| CG13794 | DRSC02298 | 3.74e6 | 4.55e6 | 3.95e6 |
| Lsd-1 | DRSC14236 | 3.43e6 | 4.00e6 | 3.79e6 |
| CG1958 | DRSC18196 | 3.46e6 | 3.94e6 | 3.93e6 |
| CG11333 | DRSC14301 | 3.49e6 | 3.81e6 | 4.13e6 |
| CG11686 | DRSC14350 | 3.66e6 | 4.20e6 | 4.12e6 |
| Wwox | DRSC03030 | 3.72e6 | 4.32e6 | 4.15e6 |
| Wwox | DRSC22872 | 3.40e6 | 3.90e6 | 3.91e6 |
| CG12493 | DRSC08279 | 3.69e6 | 4.16e6 | 4.21e6 |
| RabX2 | DRSC18234 | 3.68e6 | 4.13e6 | 4.17e6 |
| stil | DRSC07699 | 3.57e6 | 4.03e6 | 4.08e6 |
| Ect3 | DRSC15462 | 3.41e6 | 3.82e6 | 3.95e6 |
| Elp2 | DRSC06095 | 3.33e6 | 3.75e6 | 3.76e6 |
| Epac | DRSC04969 | 1.90e6 | 4.08e6 | – |
| Epac | DRSC04996 | 3.64e6 | 4.04e6 | 4.03e6 |
| Epac | DRSC04997 | 3.18e6 | 3.51e6 | 3.59e6 |
| CG3163 | DRSC04341 | 3.53e6 | 4.15e6 | 3.81e6 |
| Arf1 | DRSC11606 | 3.66e6 | 4.16e6 | 4.10e6 |
| CG1503 | DRSC20512 | 3.49e6 | 4.05e6 | 3.86e6 |
| CG33462 | DRSC22902 | 3.43e6 | 3.97e6 | 3.87e6 |
| firl | DRSC02428 | 3.83e6 | 4.32e6 | 4.21e6 |
| dbr | DRSC00274 | 3.03e6 | 3.44e6 | 3.28e6 |
| mRpS33 | DRSC14239 | 3.37e6 | 3.86e6 | 3.75e6 |
| rho-6 | DRSC02588 | 3.76e6 | 4.15e6 | 4.24e6 |
| CG17249 | DRSC08517 | 3.56e6 | 4.00e6 | 4.07e6 |
| PpY-55A | DRSC07513 | 3.40e6 | 3.85e6 | 3.82e6 |
| PpY-55A | DRSC23328 | 3.65e6 | 4.16e6 | 4.12e6 |
| scpr-B | DRSC15200 | 3.49e6 | 3.91e6 | 3.97e6 |
| Rab7 | DRSC16810 | 3.49e6 | 3.97e6 | 3.94e6 |
| CG10747 | DRSC02104 | 3.59e6 | 4.04e6 | 4.12e6 |
| CG34408 | DRSC17733 | 3.43e6 | 4.35e6 | 3.92e6 |
| CG34408 | DRSC21926 | 2.99e6 | 3.79e6 | 3.79e6 |
| CG34408 | DRSC23056 | 3.49e6 | 4.05e6 | 3.91e6 |
| SCCRO | DRSC10844 | 3.39e6 | 3.85e6 | 3.79e6 |
| Pax | DRSC01703 | 3.59e6 | 4.02e6 | 4.10e6 |
| Pax | DRSC02651 | 3.63e6 | 4.12e6 | 4.16e6 |
| Pax | DRSC02652 | 3.58e6 | 4.07e6 | 4.07e6 |
| CG32188 | DRSC09510 | 3.69e6 | 4.39e6 | 3.94e6 |
| CG15084 | DRSC06515 | 3.63e6 | 4.16e6 | 4.09e6 |
| CG15084 | DRSC21403 | 3.48e6 | 4.04e6 | 3.88e6 |
